Test results from article PMC7494909.
No constants are given. Whether binding was seen depends on the method and setting. In cells and extracts the contact can be indirect. Some results given as binding are weak or reduced against the parent protein; the word gives no strength. For some of these results: Where a sequence is shown, tags or fusion partners need not be part of it. Blank lines part the entries; values can stand above or below the binder they belong to.

Experiments:
[1] = molecular target: T1, Flag-tagged Xinβ protein fragment (amino acids 334-1075) (UniProt Q4U4S6); test: co-IP; HEK293T cells transiently transfected, harvested after 48 h in PBS with 0.5% Triton X-100, 1 mM EDTA, 1 mM PMSF and protease inhibitors; precipitated with anti-Flag or anti-GFP antibodies and protein A/G beads; western blot
T1 sequence: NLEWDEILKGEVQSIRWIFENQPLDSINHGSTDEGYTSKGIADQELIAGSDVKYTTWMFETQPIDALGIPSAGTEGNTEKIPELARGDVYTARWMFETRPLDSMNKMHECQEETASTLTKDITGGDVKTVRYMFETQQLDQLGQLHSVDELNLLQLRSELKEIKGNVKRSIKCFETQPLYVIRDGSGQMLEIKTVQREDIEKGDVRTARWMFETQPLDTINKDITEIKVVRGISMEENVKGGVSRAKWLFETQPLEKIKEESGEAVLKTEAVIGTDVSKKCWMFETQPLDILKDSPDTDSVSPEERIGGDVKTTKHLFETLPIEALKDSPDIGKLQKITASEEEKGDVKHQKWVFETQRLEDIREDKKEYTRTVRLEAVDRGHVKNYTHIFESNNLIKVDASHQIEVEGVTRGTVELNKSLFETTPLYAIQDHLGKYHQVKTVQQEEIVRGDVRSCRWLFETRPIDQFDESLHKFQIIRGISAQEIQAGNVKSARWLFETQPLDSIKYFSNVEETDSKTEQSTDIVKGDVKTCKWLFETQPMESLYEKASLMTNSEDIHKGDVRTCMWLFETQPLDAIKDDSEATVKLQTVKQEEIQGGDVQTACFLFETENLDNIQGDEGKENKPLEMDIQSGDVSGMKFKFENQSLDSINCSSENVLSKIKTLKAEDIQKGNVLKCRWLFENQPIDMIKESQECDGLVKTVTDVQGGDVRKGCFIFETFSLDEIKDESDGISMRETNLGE

[2] = molecular target: T2, Flag-tagged Xinβ protein fragment (amino acids 334-680) (UniProt Q4U4S6); test: as above
T2 sequence: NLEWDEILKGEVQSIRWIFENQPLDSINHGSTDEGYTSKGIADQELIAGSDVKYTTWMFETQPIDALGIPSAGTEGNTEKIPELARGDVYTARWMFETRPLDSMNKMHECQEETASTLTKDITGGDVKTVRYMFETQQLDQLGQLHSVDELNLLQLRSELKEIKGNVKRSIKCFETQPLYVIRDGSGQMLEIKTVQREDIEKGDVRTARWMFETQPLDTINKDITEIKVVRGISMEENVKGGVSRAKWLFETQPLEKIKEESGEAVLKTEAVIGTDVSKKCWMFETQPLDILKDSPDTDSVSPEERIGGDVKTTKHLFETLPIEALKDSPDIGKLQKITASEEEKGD

[3] = molecular target: endogenous Xinβ (mouse (endogenous in mouse heart)) (UniProt Q4U4S6); test: co-IP; endogenous proteins from WT and Xinβ KO mouse hearts; the precipitating antibody and the conditions are not told
[4] = molecular target: T3, GFP-tagged NF2 (neurofibromin 2) (UniProt P46662); test: co-IP; HEK293T cells transiently transfected, harvested after 48 h in PBS with 0.5% Triton X-100, 1 mM EDTA, 1 mM PMSF and protease inhibitors; precipitated with anti-Flag or anti-GFP antibodies and protein A/G beads; western blot
T3 sequence: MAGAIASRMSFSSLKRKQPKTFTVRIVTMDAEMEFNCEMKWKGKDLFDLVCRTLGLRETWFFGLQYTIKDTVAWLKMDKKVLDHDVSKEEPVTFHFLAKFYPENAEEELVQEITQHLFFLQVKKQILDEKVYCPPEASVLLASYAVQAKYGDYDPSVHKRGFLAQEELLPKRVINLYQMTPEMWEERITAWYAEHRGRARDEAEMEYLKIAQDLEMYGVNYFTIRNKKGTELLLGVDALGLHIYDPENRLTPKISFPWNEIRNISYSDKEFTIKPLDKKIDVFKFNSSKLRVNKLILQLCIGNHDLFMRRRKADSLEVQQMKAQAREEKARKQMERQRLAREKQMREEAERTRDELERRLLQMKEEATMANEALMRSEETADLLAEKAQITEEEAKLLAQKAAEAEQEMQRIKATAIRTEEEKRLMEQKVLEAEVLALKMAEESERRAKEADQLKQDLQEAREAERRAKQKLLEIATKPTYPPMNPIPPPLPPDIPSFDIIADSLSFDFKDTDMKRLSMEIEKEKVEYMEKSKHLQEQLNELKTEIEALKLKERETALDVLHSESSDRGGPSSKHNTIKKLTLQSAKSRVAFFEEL

- binding [1]: binds
- binding [2]: binds
B1: GFP-tagged NF2 (neurofibromin 2) (protein, UniProt P46662 1-596)
chain: T3 sequence

- binding [3]: binds
B2: NF2 protein (endogenous, heart) (protein, UniProt P46662 1-596)
chain: T3 sequence

- binding [4]: binds
B3: Flag-tagged Xinβ protein fragment (amino acids 334-1075) (domain or fragment, UniProt Q4U4S6 334-1075)
chain: T1 sequence
